{"source": "patent US10610520B2", "about": "“Heterocyclic compound” (Takeda Pharmaceutical Company Limited, priority 2016, dated 2020)", "system": "intracerebral 2-AG and arachidonic acid", "assay": "Measurement of intracerebral 2-AG and arachidonic acid concentrations after oral administration", "assay_type": "in vivo", "settings": "oral administration to C57BL/6J mice, 3 mg/kg", "experimental": "As the mouse, 8-week-old male C57BL/6J mice (CLEA Japan, Inc.) were used (6 mice/group). Administration solutions were prepared by suspending the test compounds (compound 1 (compound of Example 279), compound 2 (compound of Example 361) and compound 3 (compound of Example 362)) in 0.5% methylcellulose solution (Wako Pure Chemical Industries, Ltd.). The dose of the test compound was prepared to be 3 mg/kg body weight/10 mL. The test compounds were administered by gavage at 3 mg/kg body weight. The cerebrum was isolated after the administration of the test compound (isolation time after the administration of the test compound is shown in Table 3), and the cerebrum hemisphere was extracted. The obtained cerebrum hemisphere was frozen on dry ice, and the frozen tissue weight was measured.\nThe cerebral tissue weight was measured, and cerebral tissue was homogenized with 4-fold (v/w) of isopropanol (IPA), and double diluted with IPA. To the diluted sample (200 μL) was added internal standard solution (5 μL) ([5,6,8,9,11,12,14,15-D8]-(5Z,8Z,11Z,14Z)5,8,11,14-eicosatetraenoic acid (AA-d8, 0.5 nmol/mL IPA) and [5,6,8,9,11,12,14,15-D8]-(5Z,8Z,11Z,14Z)-5,8,11,14-eicosatetraenoyl-2-glycerol ester (2-AG-d3, 0.5 nmol/mL IPA)), and the mixture was centrifuged at 15000 rpm for 5 min. The supernatant was injected to liquid chromatography mass spectrometer to perform quantitative analysis.\nFor liquid chromatography, Shimadzu LC20A system (Shimadzu Corporation) was used. The separation was performed by gradient elution method with mobile phase A (10 mmol/L HCOONH4/HCOOH (100:0.2, v/v)) and mobile phase B (ethanol/IPA (3:2, v/v)) using Shim-pack XR-ODS (2.2 μm, 2.0×30 mm, Shimadzu Corporation) at column temperature of 50° C., at flow rate of 0.5 mL/min. The gradient conditions are as follows: 0-1 min, 1% B; 1-1.2 min, 1-55% B; 1.2-2.7 min, 55-75% B; 2.7-3.5 min, 75-99% B; 3.5-6 min, 99% B; 6-8 min, 1% B.\nFor mass spectrometer, API5000 (AB SCIEX) was used. The eluate from the liquid chromatography was directly ionized by turbospray ionization method, where (5Z,8Z,11Z,14Z)5,8,11,14-eicosatetraenoic acid (AA) and AA-d8 were measured by negative ionization mode, and (5Z,8Z,11Z,14Z)5,8,11,14-eicosatetraenoyl-2-glycerol ester (2-AG) and 2-AG-d3 were measured by positive ionization mode.\nA solution for calibration curve was prepared to the concentration of 2, 5, 10, 20, 50, 100, 200, 500, 1000 nmol/mL of acetonitrile. These solutions (10 μL) was mixed with 200 μL of IPA and 5 μL of internal standard solution, and the mixture was centrifuged at 15000 rpm for 5 min, and the supernatant was injected to liquid chromatography mass spectrometer to perform analysis. The calibration curve was drawn by regression line with a weighting of 1/x^2, and the quantitativity was confirmed by accuracy of 100±20% and R^2>0.99.", "note": "At least one compound was matched to its structure with a doubt left. Some entries repeat one wording, which the source may state once for all of them.", "data": [{"smiles": "O=C1NC2(CO1)CN(C(=O)c1sc3cc(F)ccc3c1Cl)C2", "note": "[compound 2, 2-((3-chloro-6-fluoro-1-benzothiophen-2-yl)carbonyl)-7-oxa-2,5-diazaspiro[3.4]octan-6-one]", "values": [{"measurement": "intracerebral 2-AG concentration compared to control", "result": "increased significantly"}, {"measurement": "intracerebral arachidonic acid concentration compared to control", "result": "decreased significantly"}]}, {"smiles": "O=C1NC2(CO1)CN(C(=O)c1sc3cc(F)cc(F)c3c1Cl)C2", "note": "[compound 3, 2-((3-chloro-4,6-difluoro-1-benzothiophen-2-yl)carbonyl)-7-oxa-2,5-diazaspiro[3.4]octan-6-one]", "values": [{"measurement": "intracerebral 2-AG concentration compared to control", "result": "increased significantly"}, {"measurement": "intracerebral arachidonic acid concentration compared to control", "result": "decreased significantly"}]}, {"smiles": "O=C1NC2(CO1)CN(C(=O)c1sc3c(F)c(OC(F)(F)F)ccc3c1Cl)C2", "note": "[compound 1, 2-((3-chloro-7-fluoro-6-(trifluoromethoxy)-1-benzothiophen-2-yl)carbonyl)-7-oxa-2,5-diazaspiro[3.4]octan-6-one]", "values": [{"measurement": "intracerebral 2-AG concentration compared to control", "result": "increased significantly"}, {"measurement": "intracerebral arachidonic acid concentration compared to control", "result": "decreased significantly"}]}]}
